These results are taken from paper PMC11511861.

The chains behind the UniProt entries cited, without tags or fusion partners. Residues count along the entry.
UniProt P46937: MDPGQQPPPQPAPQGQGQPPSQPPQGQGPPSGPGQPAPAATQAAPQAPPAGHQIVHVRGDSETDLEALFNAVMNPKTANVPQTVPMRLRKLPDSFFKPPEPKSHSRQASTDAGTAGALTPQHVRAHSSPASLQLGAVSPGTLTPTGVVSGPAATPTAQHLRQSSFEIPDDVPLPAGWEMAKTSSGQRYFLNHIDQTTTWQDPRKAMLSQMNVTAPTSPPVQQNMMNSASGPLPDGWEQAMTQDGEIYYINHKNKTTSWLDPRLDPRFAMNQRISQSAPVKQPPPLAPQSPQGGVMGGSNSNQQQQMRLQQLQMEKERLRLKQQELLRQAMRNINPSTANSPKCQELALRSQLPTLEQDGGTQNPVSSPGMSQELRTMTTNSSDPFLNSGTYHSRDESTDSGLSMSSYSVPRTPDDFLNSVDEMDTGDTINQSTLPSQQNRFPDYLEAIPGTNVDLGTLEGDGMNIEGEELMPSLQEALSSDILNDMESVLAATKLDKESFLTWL
UniProt P02545, residues 1-646: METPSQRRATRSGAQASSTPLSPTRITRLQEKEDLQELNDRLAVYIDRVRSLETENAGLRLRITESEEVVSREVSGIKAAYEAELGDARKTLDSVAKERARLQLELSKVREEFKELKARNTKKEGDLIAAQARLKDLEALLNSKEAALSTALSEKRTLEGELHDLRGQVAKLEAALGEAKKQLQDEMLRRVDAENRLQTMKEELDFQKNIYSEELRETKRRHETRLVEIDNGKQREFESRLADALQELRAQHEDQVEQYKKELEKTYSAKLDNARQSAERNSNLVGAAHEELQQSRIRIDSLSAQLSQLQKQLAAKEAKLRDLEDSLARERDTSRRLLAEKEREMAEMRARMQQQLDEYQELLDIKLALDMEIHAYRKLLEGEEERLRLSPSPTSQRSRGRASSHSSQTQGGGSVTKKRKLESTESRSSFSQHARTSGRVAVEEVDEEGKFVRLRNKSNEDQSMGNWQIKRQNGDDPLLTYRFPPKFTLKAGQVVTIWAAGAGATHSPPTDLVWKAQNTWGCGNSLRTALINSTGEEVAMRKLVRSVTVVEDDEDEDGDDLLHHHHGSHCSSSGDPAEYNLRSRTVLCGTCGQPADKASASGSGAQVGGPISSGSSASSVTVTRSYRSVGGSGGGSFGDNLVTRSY
UniProt P01106: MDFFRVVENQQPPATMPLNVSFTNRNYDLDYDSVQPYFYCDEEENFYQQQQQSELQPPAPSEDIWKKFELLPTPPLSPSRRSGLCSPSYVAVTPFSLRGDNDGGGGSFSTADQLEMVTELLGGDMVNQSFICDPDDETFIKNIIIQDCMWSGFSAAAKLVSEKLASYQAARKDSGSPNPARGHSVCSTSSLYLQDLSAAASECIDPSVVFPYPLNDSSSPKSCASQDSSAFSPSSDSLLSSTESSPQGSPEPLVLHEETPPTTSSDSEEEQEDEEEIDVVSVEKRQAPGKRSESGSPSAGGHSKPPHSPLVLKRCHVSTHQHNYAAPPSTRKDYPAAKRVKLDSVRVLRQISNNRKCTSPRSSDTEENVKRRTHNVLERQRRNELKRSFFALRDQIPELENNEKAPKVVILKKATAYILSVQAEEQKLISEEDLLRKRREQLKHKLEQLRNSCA
UniProt P25490: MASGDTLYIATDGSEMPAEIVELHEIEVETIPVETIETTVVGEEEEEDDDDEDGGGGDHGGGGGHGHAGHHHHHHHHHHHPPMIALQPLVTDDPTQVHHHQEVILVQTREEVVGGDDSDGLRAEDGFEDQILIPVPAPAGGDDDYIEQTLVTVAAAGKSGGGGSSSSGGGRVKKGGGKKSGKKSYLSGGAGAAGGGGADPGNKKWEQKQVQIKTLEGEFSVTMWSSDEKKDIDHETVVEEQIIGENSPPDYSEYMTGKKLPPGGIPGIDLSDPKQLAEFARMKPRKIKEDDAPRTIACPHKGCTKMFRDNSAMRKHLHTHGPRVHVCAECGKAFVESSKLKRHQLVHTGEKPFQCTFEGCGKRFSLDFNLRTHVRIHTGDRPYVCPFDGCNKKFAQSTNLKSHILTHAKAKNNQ

No constants are given. Whether binding was seen depends on the method and setting. In cells and extracts the contact can be indirect. Some entries that bind do so weakly or less than the wild type.

For assay [1], the target named is YAP (human (endogenous in H1299)) (UniProt P46937). Nature of the assay: proximity ligation; Duolink in situ PLA kit on fixed H1299 cells; endogenous proteins.
The target is the same in assay [2]. Nature of the assay: co-IP; H1299 protein lysates immunoprecipitated with anti-IgG, anti-YAP, anti-pMYC or anti-YY1 antibodies, then Western blot; 5-10% of total lysate as input; endogenous proteins. A general note: Immunoblotting shows a protein as a band on a membrane.

Lamin A/C (from UniProt P02545 1-646): the binding entry in assay [1] and in assay [2] was “binds” in each case.
For the substance pMYC (from UniProt P01106 1-454), the binding entry in assay [1] and in assay [2] was “binds” throughout.
As for “YY1 (Yin Yang 1) transcription factor (from UniProt P25490 1-414)”, the binding result in assay [1] and in assay [2] was “binds” each time.
